The values below come from paper PMC5378391, “Maltose binding protein-fusion enhances the bioactivity of truncated forms of pig myostatin propeptide produced in E. coli” (PLoS ONE, 2017).

No constants are given. Whether binding was seen depends on the method and setting. For some of these results: Binding can be weak; no strength is given.

In assay [1] the target is MBP-fused truncated pig MSTNpro containing residues 42-175 (pig) (UniProt O18831). Nature of the assay: pull-down; MSTN (6 nM) with 15, 30, 45 and 60 nM MBP-Pro42-175 or MBP-Pro42-98, or 60 nM MBP, on amylose resin; eluate immuno-blotted with monoclonal anti-MSTN antibody; both purified.
Assay [2] has the same target. Kind of assay: condition: only at 1 nM MBP-Pro42-175 with 6 nM MSTN; pull-down; as a2, but 1 nM MBP-Pro42-175 or MBP-Pro42-98 with 6 nM MSTN on amylose resin; immuno-blot against MSTN; both purified.
Assay [3] concerns the target MBP-fused truncated pig MSTNpro containing residues 42-115 (pig) (UniProt O18831). Nature of the assay: pull-down; MBP-MSTNpro protein (480 nM) plus MSTN (48 nM) mixed with 50 uL amylose resin in 1 mL, 2 hr at room temperature; washed three times with column buffer; eluted in reducing SDS-PAGE loading buffer; Coomassie blue staining; both purified.
For assay [4], the target named is MBP-fused truncated pig MSTNpro containing residues 42-175 (pig) (UniProt O18831). Described as above.

Turning to “Myostatin (MSTN) (from UniProt O14793 267-375) (ligand)”, the binding entry in assay [1] was “binds”; in assay [2], “no binding”; in assay [3], “binds”; in assay [4], “binds”.
